# Assay results taken from the supplement of paper PMC10032668.
# Chains of the proteins cited; added tags and fusions are not shown.
# DNM1L, O00429, UniProt O00429, whole entry: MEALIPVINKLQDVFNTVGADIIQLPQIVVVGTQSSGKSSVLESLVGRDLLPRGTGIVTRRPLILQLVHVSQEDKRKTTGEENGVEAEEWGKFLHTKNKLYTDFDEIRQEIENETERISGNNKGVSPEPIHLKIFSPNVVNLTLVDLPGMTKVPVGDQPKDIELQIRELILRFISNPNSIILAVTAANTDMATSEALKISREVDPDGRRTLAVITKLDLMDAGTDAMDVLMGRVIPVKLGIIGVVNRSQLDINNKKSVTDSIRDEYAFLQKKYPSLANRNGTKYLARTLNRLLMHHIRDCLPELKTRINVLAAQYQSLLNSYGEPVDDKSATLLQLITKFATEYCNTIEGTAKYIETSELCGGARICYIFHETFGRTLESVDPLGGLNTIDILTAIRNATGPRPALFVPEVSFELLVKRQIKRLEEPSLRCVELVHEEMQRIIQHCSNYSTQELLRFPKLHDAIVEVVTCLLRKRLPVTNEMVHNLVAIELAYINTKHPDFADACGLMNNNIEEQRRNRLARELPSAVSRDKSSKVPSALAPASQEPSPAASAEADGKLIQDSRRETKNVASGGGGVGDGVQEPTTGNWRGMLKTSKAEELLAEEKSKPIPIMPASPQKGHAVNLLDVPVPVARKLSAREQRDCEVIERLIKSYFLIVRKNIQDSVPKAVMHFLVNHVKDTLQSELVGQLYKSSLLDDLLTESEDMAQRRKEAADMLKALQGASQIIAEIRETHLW
# EIF4E, P06730, UniProt P06730, whole entry: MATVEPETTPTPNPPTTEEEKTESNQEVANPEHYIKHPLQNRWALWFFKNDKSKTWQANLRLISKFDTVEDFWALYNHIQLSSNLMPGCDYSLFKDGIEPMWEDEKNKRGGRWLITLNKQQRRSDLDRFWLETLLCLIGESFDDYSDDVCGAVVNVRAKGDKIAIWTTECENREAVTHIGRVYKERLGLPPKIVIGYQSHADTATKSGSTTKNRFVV
# NELFA, Q9H3P2, UniProt Q9H3P2, whole entry: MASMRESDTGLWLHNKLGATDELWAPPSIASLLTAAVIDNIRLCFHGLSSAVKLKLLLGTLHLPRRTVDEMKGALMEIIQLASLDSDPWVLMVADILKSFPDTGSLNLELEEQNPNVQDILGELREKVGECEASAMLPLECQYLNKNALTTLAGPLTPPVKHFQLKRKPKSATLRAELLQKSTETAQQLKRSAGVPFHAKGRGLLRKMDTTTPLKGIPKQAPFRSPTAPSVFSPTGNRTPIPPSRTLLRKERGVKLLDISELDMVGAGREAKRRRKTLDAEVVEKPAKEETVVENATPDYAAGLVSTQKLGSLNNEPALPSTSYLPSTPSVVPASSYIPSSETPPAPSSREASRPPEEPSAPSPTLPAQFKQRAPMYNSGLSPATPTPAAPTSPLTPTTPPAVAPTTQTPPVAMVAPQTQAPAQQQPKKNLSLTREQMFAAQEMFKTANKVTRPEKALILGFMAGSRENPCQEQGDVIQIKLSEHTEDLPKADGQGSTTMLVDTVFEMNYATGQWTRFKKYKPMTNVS
# PCBP2, Q15366, UniProt Q15366, whole entry: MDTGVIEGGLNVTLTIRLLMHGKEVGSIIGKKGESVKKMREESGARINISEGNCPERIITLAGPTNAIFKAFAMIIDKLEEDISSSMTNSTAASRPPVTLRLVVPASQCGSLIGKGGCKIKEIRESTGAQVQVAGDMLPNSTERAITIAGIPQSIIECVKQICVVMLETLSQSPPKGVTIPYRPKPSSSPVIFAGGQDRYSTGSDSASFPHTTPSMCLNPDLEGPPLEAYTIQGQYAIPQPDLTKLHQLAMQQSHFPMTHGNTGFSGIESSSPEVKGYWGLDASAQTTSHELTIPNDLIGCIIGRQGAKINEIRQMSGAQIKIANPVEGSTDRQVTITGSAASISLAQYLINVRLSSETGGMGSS
# MSN, P26038, UniProt P26038, whole entry: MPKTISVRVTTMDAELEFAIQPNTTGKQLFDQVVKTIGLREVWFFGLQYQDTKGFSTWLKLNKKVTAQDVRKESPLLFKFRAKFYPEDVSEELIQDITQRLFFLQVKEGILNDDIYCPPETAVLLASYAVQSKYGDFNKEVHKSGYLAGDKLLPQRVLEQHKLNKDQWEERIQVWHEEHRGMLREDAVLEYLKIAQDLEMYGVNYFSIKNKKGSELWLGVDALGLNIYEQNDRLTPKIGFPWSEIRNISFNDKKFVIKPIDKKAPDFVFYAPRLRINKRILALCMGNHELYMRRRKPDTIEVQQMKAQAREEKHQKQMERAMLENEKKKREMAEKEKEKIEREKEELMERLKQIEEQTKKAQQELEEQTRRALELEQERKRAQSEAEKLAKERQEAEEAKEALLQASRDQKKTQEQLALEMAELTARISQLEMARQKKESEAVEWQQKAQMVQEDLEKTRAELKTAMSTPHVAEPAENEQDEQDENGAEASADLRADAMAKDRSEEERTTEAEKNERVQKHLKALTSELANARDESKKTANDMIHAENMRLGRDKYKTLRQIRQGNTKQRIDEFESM
# DCTN5, Q9BTE1, UniProt Q9BTE1, whole entry: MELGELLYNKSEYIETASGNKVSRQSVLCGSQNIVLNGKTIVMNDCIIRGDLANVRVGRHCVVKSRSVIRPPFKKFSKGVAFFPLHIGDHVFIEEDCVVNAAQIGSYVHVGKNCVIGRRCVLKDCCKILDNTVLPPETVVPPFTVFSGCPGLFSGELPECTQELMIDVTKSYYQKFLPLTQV
# NDUFS3, O75489, UniProt O75489, whole entry: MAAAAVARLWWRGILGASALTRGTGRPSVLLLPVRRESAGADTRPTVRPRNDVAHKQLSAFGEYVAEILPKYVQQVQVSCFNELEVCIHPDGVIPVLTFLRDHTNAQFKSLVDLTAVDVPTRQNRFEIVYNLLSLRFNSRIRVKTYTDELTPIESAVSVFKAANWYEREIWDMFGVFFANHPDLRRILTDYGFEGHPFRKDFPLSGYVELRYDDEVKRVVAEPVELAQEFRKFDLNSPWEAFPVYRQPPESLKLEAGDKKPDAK
# RNASET2, O00584, UniProt O00584, whole entry: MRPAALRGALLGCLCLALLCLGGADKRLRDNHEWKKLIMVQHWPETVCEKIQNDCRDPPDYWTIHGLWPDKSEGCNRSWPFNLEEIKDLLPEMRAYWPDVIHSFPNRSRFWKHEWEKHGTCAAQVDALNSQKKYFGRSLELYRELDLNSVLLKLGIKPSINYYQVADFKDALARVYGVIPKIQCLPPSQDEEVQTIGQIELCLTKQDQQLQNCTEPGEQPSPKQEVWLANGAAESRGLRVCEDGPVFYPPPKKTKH
# SNX1, Q13596, UniProt Q13596, whole entry: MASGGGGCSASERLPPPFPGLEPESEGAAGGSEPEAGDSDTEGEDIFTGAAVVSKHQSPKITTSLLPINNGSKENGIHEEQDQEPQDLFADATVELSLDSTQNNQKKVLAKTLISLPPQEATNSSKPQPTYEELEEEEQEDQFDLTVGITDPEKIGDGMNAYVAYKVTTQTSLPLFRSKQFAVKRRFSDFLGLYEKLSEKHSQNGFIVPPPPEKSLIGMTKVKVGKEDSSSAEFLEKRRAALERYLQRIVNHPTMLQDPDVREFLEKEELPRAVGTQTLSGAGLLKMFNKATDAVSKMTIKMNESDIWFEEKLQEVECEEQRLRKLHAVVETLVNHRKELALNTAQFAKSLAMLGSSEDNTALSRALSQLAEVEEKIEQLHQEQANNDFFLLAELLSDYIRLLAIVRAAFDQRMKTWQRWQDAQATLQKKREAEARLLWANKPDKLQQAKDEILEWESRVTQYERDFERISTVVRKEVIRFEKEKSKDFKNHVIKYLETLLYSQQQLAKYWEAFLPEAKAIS
# Some of the results follow. The list holds hits alone, and they repeat only in part.
# Assays:
# Assay in all cases: PRISMA enrichment of interactor (LFQ) in peptide spot vs all other peptide spots (log2 fold change); higher = stronger / more specific binding of the interactor to the peptide
# ABCF2, Q9UG63 = molecular target: ABCF2, Q9UG63
# Procedure: (§1)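 PRISMA: 15-aa overlapping tiles (offset 8 aa) of 60 microproteins, plus SOS1/GLUT1 control peptides, were spot-synthesized on cellulose membranes in triplicate. Membranes were incubated with benzonase-treated HEK293T lysate, and bound proteins were identified by LC-MS/MS with LFQ. Enrichment is the log2 fold change of each protein in one spot versus all other spots. Only interactors passing the significance cutoff are listed.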
# ATP1A1, P05023 = molecular target: ATP1A1, P05023
# Procedure: as §1
# CALU, O43852 = molecular target: CALU, O43852
# Procedure: as §1
# CHERP, Q8IWX8 = molecular target: CHERP, Q8IWX8
# Procedure: as §1
# DBN1, Q16643 = molecular target: DBN1, Q16643
# Procedure: as §1
# DNM1L, O00429 = molecular target: DNM1L, O00429
# Procedure: as §1
# EEF1AKNMT, Q8N6R0 = molecular target: EEF1AKNMT, Q8N6R0
# Procedure: as §1
# EIF4E, P06730 = molecular target: EIF4E, P06730
# Procedure: as §1
# GTF3C3, Q9Y5Q9 = molecular target: GTF3C3, Q9Y5Q9
# Procedure: as §1
# KPNA6, O60684 = molecular target: KPNA6, O60684
# Procedure: as §1
# NELFA, Q9H3P2 = molecular target: NELFA, Q9H3P2
# Procedure: as §1
# PCBP2, Q15366 = molecular target: PCBP2, Q15366
# Procedure: as §1
# RRP15, Q9Y3B9 = molecular target: RRP15, Q9Y3B9
# Procedure: as §1
# RTF1, Q92541 = molecular target: RTF1, Q92541
# Procedure: as §1
# SIRT1, Q96EB6 = molecular target: SIRT1, Q96EB6
# Procedure: as §1
# TRAFD1, O14545 = molecular target: TRAFD1, O14545
# Procedure: as §1
# VPS52, Q8N1B4 = molecular target: VPS52, Q8N1B4
# Procedure: as §1
# ABCF1, Q8NE71 = molecular target: ABCF1, Q8NE71
# Procedure: as §1
# BAG4, O95429 = molecular target: BAG4, O95429
# Procedure: as §1
# CBX3, Q13185 = molecular target: CBX3, Q13185
# Procedure: as §1
# CIAPIN1, Q6FI81 = molecular target: CIAPIN1, Q6FI81
# Procedure: as §1
# CYP51A1, Q16850 = molecular target: CYP51A1, Q16850
# Procedure: as §1
# GEMIN2, O14893 = molecular target: GEMIN2, O14893
# Procedure: as §1
# HTATSF1, O43719 = molecular target: HTATSF1, O43719
# Procedure: as §1
# MSN, P26038 = molecular target: MSN, P26038
# Procedure: as §1
# SUGP1, Q8IWZ8 = molecular target: SUGP1, Q8IWZ8
# Procedure: as §1
# TFB1M, Q8WVM0 = molecular target: TFB1M, Q8WVM0
# Procedure: as §1
# VRK1, Q99986 = molecular target: VRK1, Q99986
# Procedure: as §1
# ARGLU1, Q9NWB6 = molecular target: ARGLU1, Q9NWB6
# Procedure: as §1
# BRD2, P25440 = molecular target: BRD2, P25440
# Procedure: as §1
# CHD1, O14646 = molecular target: CHD1, O14646
# Procedure: as §1
# DCTN5, Q9BTE1 = molecular target: DCTN5, Q9BTE1
# Procedure: as §1
# GATAD2A, Q86YP4 = molecular target: GATAD2A, Q86YP4
# Procedure: as §1
# MAP4, P27816 = molecular target: MAP4, P27816
# Procedure: as §1
# MRPS9, P82933 = molecular target: MRPS9, P82933
# Procedure: as §1
# NDUFS3, O75489 = molecular target: NDUFS3, O75489
# Procedure: as §1
# NOP14, P78316 = molecular target: NOP14, P78316
# Procedure: as §1
# NUDC, Q9Y266 = molecular target: NUDC, Q9Y266
# Procedure: as §1
# ORC4, O43929 = molecular target: ORC4, O43929
# Procedure: as §1
# PDCL3, Q9H2J4 = molecular target: PDCL3, Q9H2J4
# Procedure: as §1
# PHF8, Q9UPP1 = molecular target: PHF8, Q9UPP1
# Procedure: as §1
# PSMB2, P49721 = molecular target: PSMB2, P49721
# Procedure: as §1
# RNASET2, O00584 = molecular target: RNASET2, O00584
# Procedure: as §1
# SNX1, Q13596 = molecular target: SNX1, Q13596
# Procedure: as §1
# STAU1, O95793 = molecular target: STAU1, O95793
# Procedure: as §1
# UBAP2, Q5T6F2 = molecular target: UBAP2, Q5T6F2
# Procedure: as §1
# XRCC6, P12956 = molecular target: XRCC6, P12956
# Procedure: as §1
binder,measurement,setting,value
YGQLCPQGRMRIATE [GAS5],PRISMA enrichment of interactor (log2),"ABCF2, Q9UG63",4.63
same,PRISMA enrichment of interactor (log2),"ATP1A1, P05023",5.77
same,PRISMA enrichment of interactor (log2),"CALU, O43852",5.39
same,PRISMA enrichment of interactor (log2),"CHERP, Q8IWX8",6.68
same,PRISMA enrichment of interactor (log2),"DBN1, Q16643",5.1
same,PRISMA enrichment of interactor (log2),"DNM1L, O00429",4.97
same,PRISMA enrichment of interactor (log2),"EEF1AKNMT, Q8N6R0",4.87
same,PRISMA enrichment of interactor (log2),"EIF4E, P06730",4.85
same,PRISMA enrichment of interactor (log2),"GTF3C3, Q9Y5Q9",7.58
same,PRISMA enrichment of interactor (log2),"KPNA6, O60684",5.75
same,PRISMA enrichment of interactor (log2),"NELFA, Q9H3P2",4.46
same,PRISMA enrichment of interactor (log2),"PCBP2, Q15366",5
same,PRISMA enrichment of interactor (log2),"RRP15, Q9Y3B9",6
same,PRISMA enrichment of interactor (log2),"RTF1, Q92541",5.1
same,PRISMA enrichment of interactor (log2),"SIRT1, Q96EB6",4.64
same,PRISMA enrichment of interactor (log2),"TRAFD1, O14545",4.04
same,PRISMA enrichment of interactor (log2),"VPS52, Q8N1B4",5.59
PAGLSWKPSSLWNSE [RP11-140K17.3_2],PRISMA enrichment of interactor (log2),"ABCF1, Q8NE71",4.86
same,PRISMA enrichment of interactor (log2),"BAG4, O95429",7.15
same,PRISMA enrichment of interactor (log2),"CBX3, Q13185",4.75
same,PRISMA enrichment of interactor (log2),"CIAPIN1, Q6FI81",4.09
same,PRISMA enrichment of interactor (log2),"CYP51A1, Q16850",4.3
same,PRISMA enrichment of interactor (log2),"GEMIN2, O14893",4.14
same,PRISMA enrichment of interactor (log2),"HTATSF1, O43719",6.78
same,PRISMA enrichment of interactor (log2),"MSN, P26038",4.86
same,PRISMA enrichment of interactor (log2),"SUGP1, Q8IWZ8",4.4
same,PRISMA enrichment of interactor (log2),"TFB1M, Q8WVM0",7.69
same,PRISMA enrichment of interactor (log2),"VRK1, Q99986",5.14
RLHFCNILLMKASHK [RP3-332B22.1],PRISMA enrichment of interactor (log2),"ABCF1, Q8NE71",10.3
same,PRISMA enrichment of interactor (log2),"ARGLU1, Q9NWB6",5.75
same,PRISMA enrichment of interactor (log2),"BRD2, P25440",4.41
same,PRISMA enrichment of interactor (log2),"CHD1, O14646",7.53
same,PRISMA enrichment of interactor (log2),"DCTN5, Q9BTE1",5.8
same,PRISMA enrichment of interactor (log2),"GATAD2A, Q86YP4",4.62
same,PRISMA enrichment of interactor (log2),"MAP4, P27816",6
same,PRISMA enrichment of interactor (log2),"MRPS9, P82933",5.57
same,PRISMA enrichment of interactor (log2),"NDUFS3, O75489",7.3
same,PRISMA enrichment of interactor (log2),"NOP14, P78316",5.52
same,PRISMA enrichment of interactor (log2),"NUDC, Q9Y266",4.54
same,PRISMA enrichment of interactor (log2),"ORC4, O43929",4.92
same,PRISMA enrichment of interactor (log2),"PDCL3, Q9H2J4",4.67
same,PRISMA enrichment of interactor (log2),"PHF8, Q9UPP1",5.46
same,PRISMA enrichment of interactor (log2),"PSMB2, P49721",4.78
same,PRISMA enrichment of interactor (log2),"RNASET2, O00584",3.96
same,PRISMA enrichment of interactor (log2),"SNX1, Q13596",4.39
same,PRISMA enrichment of interactor (log2),"STAU1, O95793",5.75
same,PRISMA enrichment of interactor (log2),"UBAP2, Q5T6F2",6.15
same,PRISMA enrichment of interactor (log2),"XRCC6, P12956",5.54

# Part of the list above, as tab-separated lines.
binder	measurement	setting	value
RLHFCNILLMKASHK [RP3-332B22.1]	PRISMA enrichment of interactor (log2)	PDCL3, Q9H2J4	4.67
same	PRISMA enrichment of interactor (log2)	PHF8, Q9UPP1	5.46
